Like-named read-outs stand apart in the source and are kept apart here.
Tests used:
[1] = Total inorganic carbon (TIC) analysis, simulated system with KHCO3
Method: Total inorganic carbon analysis: To quantify the amount of total inorganic carbon converted to CO2, the quantities of bicarbonate in the solution before and after the irradiation were determined using a total inorganic carbon analyzer consisting of an acidification module and a coulometric detection. […] Air was used as carrier gas (100 mL/min) in all experiments. 1 mM KHCO3 solution was tested similarly as the reference sample. Calculations were based on sample volume and 1 M Na2CO3 was used as the standard solution.

[2] = Head space CO2 release measurement (infrared sensor, 470 nm LED)
From the text: This step is important to reproducibly measure the CO2 release as described below. […] After the reading of CO2 was steady, irradiation was applied from outside of the glass chamber using a 470 nm LED with moderate power (˜ 13 mW/cm^2). The CO2 released to the chamber was monitored using a head space method, as also used in previous studies. The concentration of CO2 gas in the chamber was monitored by the sensor and compared to that of a standard. Not only does this method directly measure the CO2 gas released, but also it is suitable for studying relatively small samples with good sensitivity. […] Addition of a strong acid leads to complete decomposition of the bicarbonate and CO2 release. […] It also reacts with CO2 via an acid-base reaction to form bicarbonate salt.

[3] = TGA-MS quantification of CO2 present in solution
[4] = pH measurements of mPAH 1 solutions under 355 nm lamp irradiation; format: physicochemical; conditions: 2 mM mPAH 1 aqueous solution, irradiated for 30 minutes
From the text: Light sources: The light source, referred as the 355 nm lamp thereafter, is a portion of the output of an Oriel 200 W mercury-xenon lamp, which was selected using a 2″ round Oriel broadband filter centered at 355 nm with a full width at half maximum of ˜150 nm and highest transmission of ˜90% (Filters 51664 and 59814). The photon fluxes at the sample position was ˜500 μmol·m^−2·s^−1, which measured using a handheld meter.
pH measurements and absorption spectra measurements: Typically for all experiments using the 355 nm lamp, 6 mL of solution mixtures were placed in a glass vial of diameter ˜2 cm and pH variations of the solutions upon light exposure were monitored continuously using a pH meter. Solutions were exposed to air and continuously stirred during pH measurements and sealed and kept in the dark without stirring for the mPAH 1 reverse reaction. Calculated amount of bicarbonate was replaced prior to second and third cycles. All absorption spectra during a given reaction event were acquired using a UV-vis spectrometer by taking a small amount (˜200 μL) of solution. Co-existence of different mPAH 1 conformers were verified using 1H NMR spectroscopy and theoretical calculations.

[5] = pH change of mPAH 2 in distilled water with 470 nm LED; format: physicochemical
[6] = NMR study of proton transfer between mPAH 2 and morpholine in the dark; format: physicochemical; conditions: 1:1 morpholine/mPAH 2, 10 mM each
[7] = pH of mPAH 2/morpholine solution over CO2 loading and irradiation; format: physicochemical; conditions: 20 minutes after irradiation
[8] = 1 mM mPAH 2 in distilled water, 470 nm LED for 5 minutes

O=C([O-])O.[K+] [KHCO3, potassium bicarbonate, reference compound]
Amount of bicarbonate in the solution ([1]; 1 mM KHCO3 alone (reference sample)): 11.42 ± 0.22 mg/L

O=C([O-])O.[Na+] [NaHCO3, reference compound]
CO2 released [2]: 5.17×10^3 ppm

O=S(=O)([O-])CCC[n+]1c(/C=C/c2cc(S(=O)(=O)[O-])cc3cn[nH]c23)sc2ccccc21.[Na+] [mPAH 1]
weight loss due to dissolved CO2 ([3]; 1 mM KHCO3 + 1 mM mPAH 1, control sample (as prepared)): 1.0% | weight loss percentage of dissolved CO2 ([3]; 1 mM KHCO3 + 1 mM mPAH 1, exposed to air, reacted under dark conditions): 1.8% | weight loss percentage of dissolved CO2 ([3]; 1 mM KHCO3 + 1 mM mPAH 1, photo-irradiated sample): 1.5% | pH reached upon irradiation [4]: 5.2 | Amount of bicarbonate in the solution ([1]; 1 mM mPAH 1 + 1 mM KHCO3, after irradiation): 5.12 ± 0.19 mg/L | Amount of bicarbonate in the solution ([1]; 1 mM mPAH 1 + 1 mM KHCO3, before irradiation): 12.02 ± 0.03 mg/L | Amount of bicarbonate in the solution ([1]; 2 mM mPAH 1 irradiated (10 mL), added 2 mM KHCO2 (10 mL), reaction in dark): 11.60 ± 0.25 mg/L | Amount of bicarbonate in the solution ([1]; 2 mM mPAH 1 irradiated (10 mL), added 2 mM KHCO2 (10 mL), reaction under irradiation): 5.43 ± 0.00 mg/L

COC(=O)c1ccc2sc(/C=C/c3cc(S(=O)(=O)[O-])cc4cn[nH]c34)[n+](CCCS(=O)(=O)O)c2c1 [mPAH 2]
increase of CO2 concentration in the head space (maximum) ([2]; 10 mM mPAH 2/morpholine loaded with CO2, 470 nm LED 15 min, first cycle): 1.74×10^3 ppm | CO2 released ([2]; HCl added to CO2-loaded mPAH 2/morpholine solution, no irradiation): 1.77×10^3 ppm | release of CO2 ([2]; mPAH 2/morpholine, 2nd cycle): 1.57×10^3 ppm | CO2 release ([2]; mPAH 2/morpholine, third cycle): 1.50×10^3 ppm | pH after keeping in the dark ([5]; 1 mM mPAH 2, in the dark 45 minutes after irradiation): 6.47 | pH after irradiation [5, 8]: 3.88 | pH lowering versus original pH [5, 8]: 2.67 unit | initial pH ([5]; 1 mM mPAH 2 in distilled water, before irradiation): 6.55 | fraction of mPAH 2 changed to the acidic SP [6]: 4/9 | fraction of mPAH 2 that kept the protonated trans conformation [6]: 5/9 | pH recovered [7]: 7.5

From US20250108358A1, “PHOTOCHEMICALLY DRIVEN REGENERATION OF CARBON DIOXIDE SORBENTS” (UT-Battelle, LLC, priority 2023, published 2025)
